According to patent publication US20120129834A1, “SEROTONIN RECEPTOR ANTAGONISTS FOR USE IN THE TREATMENT OF HUNTINGTON'S DISEASE” (BUCK INSTITUTE FOR RESEARCH ON AGING, priority 2010, published 2012):

Tested on: caspase-3/7
Test: caspase activation assay, STHdh111Q/111Q serum deprivation model
Assay type: cell-based
Details: dose/response, FIG. 17 lower panel, n=3/dose

CN1CCC(=C2c3ccccc3C=Cc3ccccc32)CC1.Cl [Cyproheptadine, 4-(5H-dibenzo[a,d]cyclohepten-5-ylidene)-1-methylpiperidine hydrochloride]
caspase-3/7 activation: rescue
